Some results were stated once for a whole list of compounds, not compound by compound.
The compounds below were run against human cloned 5-HT6 receptors (Homo sapiens, UniProt P50406) (assay: affinity for the 5-HT6 receptor (procedures outlined in WO98/27081)).
Type: binding

By UniProt entry, the sequences of proteins in these tests, tags left out.
UniProt P50406, whole entry: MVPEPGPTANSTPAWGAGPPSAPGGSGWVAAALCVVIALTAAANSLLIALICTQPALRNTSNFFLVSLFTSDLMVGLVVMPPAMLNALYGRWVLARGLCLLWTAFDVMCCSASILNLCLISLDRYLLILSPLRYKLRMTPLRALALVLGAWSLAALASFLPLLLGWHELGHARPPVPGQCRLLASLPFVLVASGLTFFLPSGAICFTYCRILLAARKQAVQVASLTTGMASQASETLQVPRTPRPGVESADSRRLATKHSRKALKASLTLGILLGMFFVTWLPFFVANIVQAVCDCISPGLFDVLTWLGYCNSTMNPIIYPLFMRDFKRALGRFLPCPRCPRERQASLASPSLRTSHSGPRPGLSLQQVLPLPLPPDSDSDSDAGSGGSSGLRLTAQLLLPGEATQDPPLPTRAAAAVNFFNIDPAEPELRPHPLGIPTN

pKi values at human cloned 5-HT6 receptors, ≥ 7.5:
C[C@H]1CNCCN1c1cccc2cc(S(=O)(=O)c3ccccc3)cnc12.Cl [Example E15, 8-((S)-2-Methyl-piperazin-1-yl)-3-phenylsulfonyl-quinoline hydrochloride]
C[C@@H]1CNCCN1c1cccc2cc(S(=O)(=O)c3ccccc3)cnc12 [Example E35]
CC1CN(c2cccc3cc(S(=O)(=O)c4ccccc4)cnc23)C(C)CN1 (stereo not drawn) [Example E36]

Source: patent US8236947B2, “Quinoline derivatives and their use as 5-HT6 ligands” (Glaxo Group Limited, priority 2002, dated 2012)
